PubChem BioAssay AID588795 (National Center for Advancing Translational Sciences (NCATS), 2011)
Out of some 390,000 compounds screened, about 1,400 (0.36%) were called active. These results got no clear call from the source, so the numbers are uncertain. The call rests on the fitted dose curve; in most records, active means well fitted inhibition curve with a large enough effect; inconclusive means small, poorly fitted or top-dose-only effect; inactive means no such curve, though single readings can be large or run the other way.

The chains behind the UniProt entries cited, without tags or fusion partners.
UniProt P39748, whole entry: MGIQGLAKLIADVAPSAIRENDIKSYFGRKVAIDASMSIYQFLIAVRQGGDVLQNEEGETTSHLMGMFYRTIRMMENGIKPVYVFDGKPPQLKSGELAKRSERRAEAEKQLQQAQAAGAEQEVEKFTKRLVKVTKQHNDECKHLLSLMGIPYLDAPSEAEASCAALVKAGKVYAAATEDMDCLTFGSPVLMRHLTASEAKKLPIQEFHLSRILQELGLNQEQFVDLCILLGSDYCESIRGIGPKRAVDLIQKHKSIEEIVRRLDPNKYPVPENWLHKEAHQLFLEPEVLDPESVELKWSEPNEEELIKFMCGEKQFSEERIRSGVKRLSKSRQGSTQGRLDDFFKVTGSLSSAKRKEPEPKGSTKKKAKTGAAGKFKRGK

Biological target: Flap endonuclease 1 (Homo sapiens) (UniProt P39748)
Experiment: qHTS Assay for the Inhibitors of Human Flap endonuclease 1 (FEN1). Further: nearly all actives have a fitted effect of over 65% in size.
Conditions: Recombinant FEN1 flap cleavage, fluorescence, 15 min
Potency means the concentration at half of the fitted maximal effect.

| Compound | Potency |
| --- | --- |
| Cc1cc(C)cc(OP(C)(=O)Nc2ccc(SC(F)(F)F)cc2)c1 (stereo unspecified) | inconclusive: 22.4 µM |
